We go through two molecules from patent publication US20130110249A1 (UNIVERSITY OF ROCHESTER, published 2013).

No constants are given. Whether binding was seen depends on the method and setting. Some entries that bind do so weakly or less than the wild type. For some assays here: Tags and fused reporters may be left off the sequences shown.

The target of assay [1] is T1, recombinant His-glucosaminidase (His-Gmd) of Staphylococcus aureus autolysin (Staphylococcus aureus) (UniProt A7X0T9).
T1 sequence: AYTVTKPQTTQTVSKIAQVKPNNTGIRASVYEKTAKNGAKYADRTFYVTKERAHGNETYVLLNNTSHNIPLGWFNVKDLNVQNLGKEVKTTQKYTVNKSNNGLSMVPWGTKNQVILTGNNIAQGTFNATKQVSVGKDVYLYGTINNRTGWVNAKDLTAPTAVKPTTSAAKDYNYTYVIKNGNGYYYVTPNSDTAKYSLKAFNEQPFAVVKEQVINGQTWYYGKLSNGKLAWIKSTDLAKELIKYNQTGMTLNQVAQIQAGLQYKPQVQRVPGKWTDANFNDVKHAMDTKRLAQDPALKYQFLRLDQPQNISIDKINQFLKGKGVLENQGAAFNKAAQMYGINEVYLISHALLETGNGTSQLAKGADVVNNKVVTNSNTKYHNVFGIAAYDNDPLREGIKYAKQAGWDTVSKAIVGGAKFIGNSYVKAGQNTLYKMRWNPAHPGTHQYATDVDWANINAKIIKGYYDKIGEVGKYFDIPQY
As to the kind of experiment: by the measure of enzyme inhibition.

Assay [2] deals with T2, native Gmd enzyme secreted by S. aureus strain UAMS-1 (Staphylococcus aureus) (UniProt P0C5Z8).
T2 sequence (looked up): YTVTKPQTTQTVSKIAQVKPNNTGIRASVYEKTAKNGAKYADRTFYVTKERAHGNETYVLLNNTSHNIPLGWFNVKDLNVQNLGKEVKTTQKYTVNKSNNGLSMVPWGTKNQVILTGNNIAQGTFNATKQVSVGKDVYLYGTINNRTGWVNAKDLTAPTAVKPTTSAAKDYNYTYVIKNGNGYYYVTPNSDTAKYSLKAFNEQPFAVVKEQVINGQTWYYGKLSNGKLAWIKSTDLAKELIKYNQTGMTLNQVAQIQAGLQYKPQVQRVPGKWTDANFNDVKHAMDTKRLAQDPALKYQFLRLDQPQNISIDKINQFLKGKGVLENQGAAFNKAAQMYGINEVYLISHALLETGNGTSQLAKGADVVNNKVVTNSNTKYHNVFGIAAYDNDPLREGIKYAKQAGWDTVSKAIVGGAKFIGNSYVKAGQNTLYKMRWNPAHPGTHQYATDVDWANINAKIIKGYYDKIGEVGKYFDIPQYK
As to the kind of experiment: by the measure of enzyme inhibition.

Assay [3] deals with T3, native Gmd of S. aureus Xen29 (Staphylococcus aureus) (UniProt P0C5Z8).
T3 sequence (looked up): T2 sequence (looked up)
Nature of the assay: inferred from the Xen29 growth (light scattering) assay.

B1: anti-Gmd monoclonal antibody 3A8 (antibody, V domains shown)
VH: EVQLQESGGGLVQPGGSMKLSCAASGFTFSDAWMDWVRQSPEKGLEWVAEIKDKTNNHATYYAESVKGRFTISRDVSKSRVFLQMNSLRPEDTGIYYCTSGPYFDYWGQGTTLTVSS
VL: DIVMTQSHKFMSTSVGDRVSITCKASQDVSTAVAWYQQKPGQSPKLLIYWTSTRHTGVPDRFTGSGSGTDFTLTISSVQAKDLALYYCQQHYTTPYTFGGGTKLEIK
notes: also called mAb 3A8; hybridoma 3A8
B1: the binding entry in assay [1], in assay [2] and in assay [3] was “binds” in each case.

B2: anti-Gmd monoclonal antibody 1C11 (antibody, V domains shown)
VH: QIQLVQSGPELKKPGETVKISCKASGYTFTTYGMSWVNQAPGKGLKWMGWINTYSGVPTYADDFKGRFVFSLETSASTAYLQINNLKNEDTATYFCAREEYSSGYAAWFPYWGQGTLVTVSA
VL: DIVLTQSPATLSVTPGDSVSLSCRASQSISNNLHWYQQKSHESPRLLIEYASRSISGIPSRFSGGGSGTDFTLSINSVESEDFGLYFCQQSNSWPLTFGAGTKLELK
notes: also called mAb 1C11; mouse 1C11
Turning to B2, the binding result in assay [2] and in assay [3] was “binds” throughout.
